Reference: PubChem BioAssay AID1259424 (University of Nebraska Medical Center, 2018)
Purpose: 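Find knockdowns that reproduce the expression shifts seen after KSR1 loss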 (primary screen). Cells: human HCT116 colon cancer cells. Knock-down reagent: siRNA pool against human genes, 50 nM. Detection: 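Six signature mRNAs by branched-DNA multiplex assay, scaled to two housekeeping genes and non-targeting median, log2; matched to mean KSR1 knockdown profile by Pearson correlation and euclidean distance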. Scale: mean correlation with KSR1 profile and KSR1 correlation: higher = expression change more like KSR1 knockdown; mean distance from KSR1 profile: higher = expression change less like KSR1 knockdown.
The whole screen tested about 14,000 reagents; below is a part drawn at random. 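Higher correlation or smaller distance means closer resemblance to KSR1 loss; control wells, including KSR1 knockdowns, recur on many plates.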 Not given: the time to read-out.

| Gene | mean correlation with KSR1 profile | mean distance from KSR1 profile | KSR1 correlation, replicate 1 | KSR1 correlation, replicate 2 | KSR1 correlation, replicate 3 |
| --- | --- | --- | --- | --- | --- |
| SDHA (GeneID 6389) | -0.0806 | 1.34 | 0.0389 | -0.224 | 0.251 |
| CC2D1A (GeneID 54862) | -0.149 | 6.41 | -0.335 | 0.119 | 0.0569 |
| PCBP4 (GeneID 57060) | -0.193 | 2.99 | -0.209 | -0.139 | -0.347 |
| NOTCH3 (GeneID 4854) | -0.665 | 1.48 | -0.0774 | 0.0104 | -0.834 |
| PPP1R15A (GeneID 23645) | 0.0725 | 1.87 | -0.182 | 0.0761 | 0.173 |
| INSAF (retired record) (GeneID 3637) | -0.343 | 2.46 | -0.419 | -0.5 | -0.366 |
| MSMO1 (GeneID 6307) | 0.785 | 2.13 | 0.822 | 0.716 | 0.793 |
| TNFSF18 (GeneID 8995) | 0.202 | 3.35 | 0.27 | 0.118 | 0.187 |
| GON4L (GeneID 54856) | -0.575 | 2.36 | -0.681 | -0.322 | -0.766 |
| DNTTIP2 (GeneID 30836) | 0.647 | 1.59 | 0.608 | 0.544 | 0.326 |
| RCAN2 (GeneID 10231) | -0.49 | 3.35 | -0.388 | -0.509 | -0.505 |
| ITGAM (GeneID 3684) | -0.464 | 2.63 | -0.423 | -0.304 | -0.412 |
| NANS (GeneID 54187) | -0.778 | 3.28 | -0.548 | -0.642 | -0.847 |
| FBXO22 (GeneID 26263) | -0.252 | 1.69 | -0.583 | -0.0147 | -0.225 |
| MIER1 (GeneID 57708) | 0.394 | 1.29 | 0.402 | 0.721 | -0.491 |
| EPHB4 (GeneID 2050) | 0.915 | 1.21 | 0.812 | 0.911 | 0.757 |
| OR3A2 (GeneID 4995) | 0.803 | 1.68 | 0.818 | 0.77 | 0.83 |
| PTGDR (GeneID 5729) | 0.612 | 1.72 | 0.789 | 0.572 | 0.626 |
| XYLT2 (GeneID 64132) | 0.183 | 2.3 | 0.411 | 0.0939 | 0.0881 |
| DEFA4 (GeneID 1669) | -0.508 | 2.04 | -0.369 | -0.182 | -0.419 |
| SF3B4 (GeneID 10262) | -0.301 | 2.34 | -0.281 | -0.0759 | -0.571 |
| ANXA5 (GeneID 308) | 0.405 | 1.52 | 0.685 | 0.435 | 0.207 |
| AKAP8 (GeneID 10270) | -0.129 | 3.79 | 0.209 | -0.372 | -0.47 |
| FKBP14 (GeneID 55033) | -0.418 | 1.65 | -0.489 | -0.531 | -0.172 |
| ARHGDIG (GeneID 398) | -0.0527 | 1.32 | -0.252 | -0.0208 | 0.12 |
| VAV2 (GeneID 7410) | -0.379 | 2.97 | -0.36 | -0.0924 | -0.366 |
| TTLL7 (GeneID 79739) | 0.35 | 1.36 | 0.323 | 0.72 | 0.0605 |
| PJA2 (GeneID 9867) | -0.275 | 3.36 | -0.154 | -0.57 | -0.0508 |
| PSMB8 (GeneID 5696) | -0.361 | 1.8 | -0.271 | -0.467 | -0.0905 |
| RFXAP (GeneID 5994) | 0.195 | 1.96 | 0.275 | 0.324 | 0.214 |
| RPRD2 (GeneID 23248) | 0.253 | 2.64 | 0.36 | 0.19 | 0.115 |
| LIF (GeneID 3976) | -0.697 | 2.97 | -0.756 | -0.671 | -0.734 |
| MYEF2 (GeneID 50804) | -0.474 | 2.51 | -0.458 | -0.444 | -0.468 |
| HTRA2 (GeneID 27429) | 0.631 | 1.33 | 0.515 | 0.648 | 0.401 |

3 entries already listed, arranged by “KSR1 correlation, replicate 3”, low to high.
| Gene | mean correlation with KSR1 profile | mean distance from KSR1 profile | KSR1 correlation, replicate 1 | KSR1 correlation, replicate 2 | KSR1 correlation, replicate 3 |
| --- | --- | --- | --- | --- | --- |
| AKAP8 (GeneID 10270) | -0.129 | 3.79 | 0.209 | -0.372 | -0.47 |
| FKBP14 (GeneID 55033) | -0.418 | 1.65 | -0.489 | -0.531 | -0.172 |
| ARHGDIG (GeneID 398) | -0.0527 | 1.32 | -0.252 | -0.0208 | 0.12 |
